This note sets out measurements from publication PMC3691573.

Chains of the proteins cited; added tags and fusions are not shown.
UniProt Q9WVH4: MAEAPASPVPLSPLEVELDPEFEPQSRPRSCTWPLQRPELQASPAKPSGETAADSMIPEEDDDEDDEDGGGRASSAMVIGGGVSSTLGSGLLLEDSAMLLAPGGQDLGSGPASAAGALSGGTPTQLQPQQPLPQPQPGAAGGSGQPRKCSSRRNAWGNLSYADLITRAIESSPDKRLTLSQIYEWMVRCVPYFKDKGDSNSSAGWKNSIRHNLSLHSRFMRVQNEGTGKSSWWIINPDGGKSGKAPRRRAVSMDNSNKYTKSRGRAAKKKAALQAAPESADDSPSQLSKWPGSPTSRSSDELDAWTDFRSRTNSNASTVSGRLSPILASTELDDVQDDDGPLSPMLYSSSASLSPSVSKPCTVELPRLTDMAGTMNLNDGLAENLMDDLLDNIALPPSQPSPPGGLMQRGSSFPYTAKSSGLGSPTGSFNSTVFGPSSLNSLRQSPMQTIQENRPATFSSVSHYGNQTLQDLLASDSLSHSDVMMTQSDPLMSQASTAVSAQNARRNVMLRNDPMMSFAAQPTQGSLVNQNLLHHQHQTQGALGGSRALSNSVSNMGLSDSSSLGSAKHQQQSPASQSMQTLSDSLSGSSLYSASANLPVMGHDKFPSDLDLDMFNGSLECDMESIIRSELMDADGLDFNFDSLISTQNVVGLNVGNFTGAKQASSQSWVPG
UniProt P28652: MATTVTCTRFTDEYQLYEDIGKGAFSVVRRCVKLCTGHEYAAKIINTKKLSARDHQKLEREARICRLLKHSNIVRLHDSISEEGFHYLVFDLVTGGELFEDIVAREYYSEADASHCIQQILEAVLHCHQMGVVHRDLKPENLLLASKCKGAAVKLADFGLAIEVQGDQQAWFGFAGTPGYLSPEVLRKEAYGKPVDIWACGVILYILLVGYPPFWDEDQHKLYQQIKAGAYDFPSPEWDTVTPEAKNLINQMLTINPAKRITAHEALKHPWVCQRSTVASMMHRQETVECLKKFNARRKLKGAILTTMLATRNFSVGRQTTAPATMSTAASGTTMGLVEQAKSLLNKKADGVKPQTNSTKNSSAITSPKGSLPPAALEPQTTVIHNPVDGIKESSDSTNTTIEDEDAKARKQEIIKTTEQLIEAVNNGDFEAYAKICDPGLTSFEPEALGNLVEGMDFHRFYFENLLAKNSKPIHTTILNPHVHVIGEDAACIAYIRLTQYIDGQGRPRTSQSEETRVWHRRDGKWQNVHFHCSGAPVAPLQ
UniProt P11798: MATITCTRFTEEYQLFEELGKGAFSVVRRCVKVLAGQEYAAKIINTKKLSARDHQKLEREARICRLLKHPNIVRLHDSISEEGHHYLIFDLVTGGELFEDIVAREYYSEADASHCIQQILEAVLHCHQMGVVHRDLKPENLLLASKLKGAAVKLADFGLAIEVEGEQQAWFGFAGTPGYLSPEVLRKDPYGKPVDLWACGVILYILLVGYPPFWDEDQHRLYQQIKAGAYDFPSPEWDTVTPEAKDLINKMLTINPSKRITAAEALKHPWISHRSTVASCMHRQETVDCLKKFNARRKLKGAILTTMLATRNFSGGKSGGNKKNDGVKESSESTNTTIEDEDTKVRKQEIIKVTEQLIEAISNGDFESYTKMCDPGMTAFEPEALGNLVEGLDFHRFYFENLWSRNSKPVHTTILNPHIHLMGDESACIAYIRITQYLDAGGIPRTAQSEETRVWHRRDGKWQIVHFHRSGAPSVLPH

These are yes or no findings as the source states them, for the method shown. Binding seen in cells or lysates may run through a third protein. Some binding calls cover weakened binding; strength is not graded here.

The target of the experiment is FLAG-tagged mouse FOXO3 (mouse) (UniProt Q9WVH4). The experiment is described as follows: co-IP; anti-FLAG IP of FLAG-FOXO3 from transfected HEK293T cells; performed as described (Xie et al., 2012).

Consider “GFP-tagged mouse CAMKII beta (from UniProt P28652 1-542) (enzyme)”, for which the binding entry was “binds”.

Regarding “GFP-tagged mouse CAMKII alpha (from UniProt P11798 1-478) (enzyme)”, the binding entry was “binds”.
